# Test results published in PubChem BioAssay AID602296 (Broad Institute, 2012).
# The campaign covered roughly 2,000 compounds. About 190 (9.5%) were called active. Inconclusive means that the source gave no clear call. Such entries were picked first, then a sample of the others.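 The calls were made as follows: active = fitted activation curve crossing 40% at a concentration no higher than the sample's top valid tested dose; inconclusive = flat fitted curve at 30% to 70% activation, or poor curve fit; inactive = signal decrease, flat curve within 30%, or the rest.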
# Experiment: sustained heat shock response element induction – cell-based, mouse, luciferase, cherry-pick, dose, confirmation (AID 602296);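 also: test compounds applied by themselves with no MG132 co-treatment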
# Conditions: NIH3T3-HGL HSF-1 response element luciferase, 48 h; at 26 µM (top of the series) unless noted
row,SMILES,activation
1,O=S(=O)(c1ccc(Cl)c(Cl)c1)c1snnc1-c1ccccc1,inconclusive: -99.6%
2,COc1ccccc1NC(=O)C1=C(C)NC2=C(C(=O)CC(c3ccc(OC)c(OC)c3)C2)C1c1coc2ccccc2c1=O (configuration not stated),inactive: -44.2%
3,COc1ccc(NS(=O)(=O)c2ccc3ccccc3c2)c2ncccc12,inconclusive: -72.9%
4,COc1nc(C)ccc1-c1noc(-c2cccs2)n1,inconclusive: -74.6%
5,CCOC(=O)CC(NC(=O)C1c2ccccc2Oc2ccccc21)c1ccccc1Cl (configuration not stated),inactive: -4.99%
6,Cn1nnc(-c2ccc(OCc3ccccc3F)cc2)n1,inconclusive: -59.6%
7,Cc1ccc2nc(NCc3ccccc3)[nH]c2c1,inconclusive: -18.2%
8,COc1ccc(C(=O)COC(=O)c2cccnc2SC)cc1,inactive: -0.632%
9,Cc1[nH][nH]c(=O)c1C(c1c(C)[nH][nH]c1=O)c1cn(Cc2ccc(Cl)c(Cl)c2)c2ccccc12,inconclusive: -14.2%
10,CCCCOc1ccc(-c2nnc(-c3ccco3)o2)cc1,inconclusive: -72.9%
11,COc1cccc(-c2c(C(=O)N/N=C(\C)c3ccc(Cl)s3)nnn2-c2nonc2N)c1,inactive: -28.4%
12,O=C(c1ccco1)c1nnn(Cc2ccccc2)c1-c1ccccc1,inconclusive: 14.8%
13,CC1(C)CC(=O)C(C=Nc2ccc(C(=O)c3ccccc3)cc2N=CC2=C(O)CC(C)(C)CC2=O)=C(O)C1,inconclusive: 15.3%
14,CCn1c(SCC(=O)N2CCOCC2)nc2oc3c(Cl)cc(Cl)cc3c(=O)c2c1=O,inactive: 7.32%
15,C/C(N)=C(/C#N)C(=O)CSc1nnc(-c2ccc3c(c2)OCO3)o1,inconclusive: -63.4%
16,C=CC[C@@H]1Cc2c(Br)ccc(Br)c2[C@@H](CC=C)N1,inconclusive: -51.9%
17,OC(CNCc1ccco1)Cn1c2ccc(Br)cc2c2cc(Br)ccc21 (configuration not stated),inactive: 3.97%
18,COC(=O)c1ccc(CSc2nc3ccccc3c(=O)n2CC(C)C)o1,inactive: 11%
19,CS(=O)(=O)c1nc(-c2ccccc2)cc(-c2ccccc2)c1C#N,inconclusive: -99.5%

row,SMILES,activation
1,O=C1C=CC(=O)N1N(c1ccccc1)c1ccccc1,inconclusive: -47%
2,Nc1nn(-c2cccc(F)n2)cc1-c1ccc(Cl)cc1,inconclusive: -25.7%
3,Cc1ccc(NC2OC(CO)C(O)C2O)cc1[N+](=O)[O-] (configuration not stated),inactive: 5.31%
4,CCCc1cc(C(=O)Nc2nccs2)cs1,inconclusive: -81.9%
5,O=C(Nc1nc2ccccc2[nH]1)c1ccc(OC(F)F)cc1,inconclusive: -83.7%
6,O=C(O)c1cc([N+](=O)[O-])c(NCCC2=CCCCC2)c([N+](=O)[O-])c1,inactive: -5.64%
7,COc1ccc(-c2cc(C(F)(F)F)nc(S(=O)(=O)CCCC(=O)Nc3cccc(O)c3)n2)cc1OC,inconclusive: -99.7%
8,Cn1cc([N+](=O)[O-])c(C(=O)Nc2ccc(-c3nc4ccccc4[nH]3)cc2)n1,inconclusive: 93.7%
9,CCOC(=O)C(C(=O)OCC)c1cc(Br)c2noc3c2c1C(=O)c1ccccc1-3,inconclusive: -78.9%
10,Cc1ccc(NC(=O)C(=Cc2ccc(C(=O)O)cc2)C(=O)Nc2ccc(C)cc2C)c(C)c1,inconclusive: -69.3%
11,COC(=O)c1sccc1NC(=O)Nc1cccc(F)c1,inactive: -0.711%
12,Cc1cc(C)nc(S/C=C/C(=O)c2ccccc2F)n1,inconclusive: 420%
13,CCOC(=O)CSC1=NC(=O)/C(=C\c2ccc(Cl)cc2)S1,inconclusive: -7.63%
14,Cc1ccc(CNC(=O)[C@H](C)N2C(=O)N3CCc4c([nH]c5ccccc45)[C@@]3(C)C2=O)cc1,inconclusive: -13.5%
15,Cc1ccc(N/C=C/C(=O)c2ccccc2)cc1C,inconclusive: -76.1%
16,Cc1ccc(C(=O)c2sc3nsc(C)c3c2N)cc1,inconclusive: -44.5%
17,COCCNC(=O)c1cccc(OC2CCN(Cc3ccc(Cl)c(F)c3)CC2)c1,inactive: -23.6%
18,CCCCn1cnc2c(oc3nc4c(cc32)CCCC4)c1=O,inconclusive: -71.4%
19,Cc1ccc(C2=Nc3ccccc3NC(C)(c3ccc(C)o3)C2)o1 (configuration not stated),inconclusive: 83.9%

# Compounds listed so far containing a COOH group:
row,SMILES,activation
6,O=C(O)c1cc([N+](=O)[O-])c(NCCC2=CCCCC2)c([N+](=O)[O-])c1,inactive: -5.64%
10,Cc1ccc(NC(=O)C(=Cc2ccc(C(=O)O)cc2)C(=O)Nc2ccc(C)cc2C)c(C)c1,inconclusive: -69.3%

# The list goes on:

row,SMILES,activation
1,Oc1ccc(-c2cnc(-c3ccc(O)cc3)nc2)cc1,inactive: -63.3%
2,O=c1c(-c2ccc3c(c2)OCCO3)coc2cc(O)cc(O)c12,inconclusive: -70.6%
3,COc1cc(-c2nnn(CC#N)n2)ccc1OCc1ccccc1,inconclusive: 25.8%
4,N#C/C(Cn1c[n+](NC(=O)Nc2ccccc2)cn1)=N/O,inconclusive: 25.6%
5,Nc1cnn(Cc2ccc(F)cc2)c1,inactive: -9.5%
6,CCc1c(C)sc(NC(=O)c2ccc(Br)o2)c1C(=O)OC,inconclusive: 7.96%
7,CC(C)NC(=O)NC(=O)COc1ccc(Br)cc1Br,inconclusive: -82.4%
8,COc1ccc(N=C2S/C(=C\c3ccc(Cl)c([N+](=O)[O-])c3)C(=O)N2CCN(C)C)cc1,inconclusive: -100%
9,O=C(Cc1nc2ccccc2[nH]c1=O)c1ccc(Cl)cc1,inconclusive: 15.2%
10,COc1ccc(-c2[nH]ncc2CN2CCN(C3CCCCC3)C(=O)C2)cc1F,inconclusive: -12.8%
11,CCc1cc2c(=O)[nH]c(-c3ccccn3)nc2s1,inconclusive: -99.8%
12,C=Cc1ncc(OC)c2c1[nH]c1ccccc12,inconclusive: 4.32%
13,O=C(/C=C/c1ccccc1)c1cc(Br)ccc(=O)c1O,inconclusive: 9.79%
14,Oc1[nH]c2ccc(Br)cc2c1N=NC(=S)N1CCOCC1,inconclusive: -87%
15,COc1ccccc1-n1nnnc1S(=O)(=O)Cc1ccc(Cl)cc1,inconclusive: -99%
16,Cc1cccn2c(=O)nc(SCC(=O)N3N=C(c4cccs4)CC3c3ccc(F)cc3)nc12 (configuration not stated),inactive: -21.7%
17,COc1ccc(NC(=O)c2cc(C)n(Cc3cccs3)c2C)cc1,inconclusive: -60.8%
18,O=C(/C=C/c1cccc([N+](=O)[O-])c1)n1cnc2ccccc21,inconclusive: 13.7%
19,COc1ccc(/C=C/C(=O)c2ccc(O)cc2)cc1COc1ccc(F)cc1,inactive: -71.3%
